Record: PubChem BioAssay AID504774 (Drosophila RNAi Screening Center, 2011)
In all, the deposit lists about 23,000 reagents; this is a random part of those that have a named target and a result. 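Values are quantile-normalised luminescence on an arbitrary scale; higher means more cells surviving MMS.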 Reagents against one gene are numbered here. Names joined by + are all predicted targets of the reagent. No sequences are given here.

- Assay: 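Fly genes whose loss alters survival after alkylation damage to DNA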 (primary screen)
- Cell system: Drosophila Kc167 cells
- Reagent: long dsRNA against Drosophila genes, about 0.25 µg dsRNA per well
- Time to read-out: about 6 days: 3 days knock-down, then 3 days with or without MMS
- Challenge: methyl methanesulphonate 0.004% (w/v) for 3 days after knock-down
- Measurement: 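Viability in wells given MMS, read as ATP luminescence, normalised by quantiles plate by plate and averaged across replicates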
- Reading the numbers: mean viability with MMS and viability with MMS: higher = more surviving cells after MMS

| predicted target | reagent no. | mean viability with MMS | viability with MMS, replicate 1 | viability with MMS, replicate 2 |
| --- | --- | --- | --- | --- |
| CG4822 | 1 | 3.60e6 | 4.37e6 | 3.82e6 |
| CG2574 | 1 | 3.46e6 | 3.83e6 | 4.02e6 |
| Npc2e (Niemann-Pick type C-2e) | 1 | 3.59e6 | 4.02e6 | 4.09e6 |
| Npc2e (Niemann-Pick type C-2e) | 2 | 3.42e6 | 3.87e6 | 3.95e6 |
| CR15280 (pseudo) | 1 | 3.53e6 | 3.98e6 | 4.04e6 |
| CG17026 | 1 | 3.76e6 | 3.90e6 | 3.89e6 |
| CTCF | 1 | 3.43e6 | 3.99e6 | 3.79e6 |
| kibra | 1 | 3.54e6 | 3.92e6 | 4.13e6 |
| kibra | 2 | 2.76e6 | 3.48e6 | 3.52e6 |
| kibra | 3 | 3.63e6 | 4.08e6 | 4.15e6 |
| CG31054 (retired record) | 1 | 3.42e6 | 3.83e6 | 4.00e6 |
| CG5397 | 1 | 3.67e6 | 4.19e6 | 4.18e6 |
| CG31875 | 1 | 3.53e6 | 3.94e6 | 4.06e6 |
| Paip2 (polyA-binding protein interacting protein 2) | 1 | 3.71e6 | 4.15e6 | 4.28e6 |
| stw (straw) | 1 | 3.60e6 | 4.01e6 | 4.17e6 |
| stw (straw) | 2 | 3.56e6 | 3.99e6 | 4.09e6 |
| stw (straw) | 3 | 3.32e6 | 3.83e6 | 3.89e6 |
| CG5273 | 1 | 3.61e6 | 4.18e6 | 4.01e6 |
| CG17928 | 1 | 3.55e6 | 3.99e6 | 4.06e6 |
| sima (similar) | 1 | 3.10e6 | 3.58e6 | 3.54e6 |
| sima (similar) | 2 | 3.23e6 | 3.63e6 | 3.65e6 |
| sob | 1 | 3.31e6 | 3.63e6 | 3.77e6 |
| RhoGAP102A (Rho GTPase activating protein at 102A) | 1 | 3.51e6 | 3.97e6 | 4.00e6 |
| RhoGAP102A (Rho GTPase activating protein at 102A) | 2 | 3.55e6 | 3.90e6 | 4.16e6 |
| Gr39b (Gustatory receptor 39b) | 1 | 3.61e6 | 4.06e6 | 4.10e6 |
| stck (steamer duck) | 1 | 3.67e6 | 4.15e6 | 4.15e6 |
| CheB53a (Chemosensory protein B 53a) | 1 | 3.71e6 | 4.21e6 | 4.15e6 |
| Nuak (Nuak family kinase) | 1 | 3.55e6 | 4.02e6 | 4.05e6 |
| Nuak (Nuak family kinase) | 2 | 3.61e6 | 3.98e6 | 4.23e6 |
| Nuak (Nuak family kinase) | 3 | 3.59e6 | 3.98e6 | 4.14e6 |
| Bace (beta-site APP-cleaving enzyme) | 1 | 1.30e6 | 3.62e6 | 3.50e6 |
| CG13133 | 1 | 3.79e6 | 4.12e6 | 4.52e6 |

Continued; the last 3 above are carried over.
| predicted target | reagent no. | mean viability with MMS | viability with MMS, replicate 1 | viability with MMS, replicate 2 |
| --- | --- | --- | --- | --- |
| Nuak (Nuak family kinase) | 3 | 3.59e6 | 3.98e6 | 4.14e6 |
| Bace (beta-site APP-cleaving enzyme) | 1 | 1.30e6 | 3.62e6 | 3.50e6 |
| CG13133 | 1 | 3.79e6 | 4.12e6 | 4.52e6 |
| SERCA (Sarco/endoplasmic reticulum Ca(2+)-ATPase) | 1 | 3.64e6 | 4.36e6 | 4.14e6 |
| CG42582 (retired record) | 1 | 2.18e6 | 3.75e6 | 3.56e6 |
| CG18011 | 1 | 3.56e6 | 4.03e6 | 4.05e6 |
| CG18011 | 2 | 3.61e6 | 4.08e6 | 4.06e6 |
| Alas (Aminolevulinate synthase) | 1 | 3.24e6 | 4.18e6 | 3.74e6 |
| Sse (Separase) | 1 | 3.40e6 | 3.82e6 | 3.92e6 |
| ppk24 (pickpocket 24) | 1 | 3.29e6 | 3.65e6 | 3.68e6 |
| CG34005 | 1 | 3.53e6 | 4.05e6 | 3.97e6 |
| Spn53F (Serpin 53F) | 1 | 3.57e6 | 4.01e6 | 4.10e6 |
| Klp3A (Kinesin-like protein at 3A) | 1 | 3.60e6 | 3.99e6 | 4.17e6 |
| Klp3A (Kinesin-like protein at 3A) | 2 | 3.74e6 | 4.24e6 | 4.18e6 |
| Spn (Spinophilin) | 1 | 3.78e6 | 4.30e6 | 4.14e6 |
| Spn (Spinophilin) | 2 | 3.39e6 | 3.83e6 | 3.88e6 |
| Spn (Spinophilin) | 3 | 3.43e6 | 3.89e6 | 3.91e6 |
| CG42286 (retired record) | 1 | 3.36e6 | 3.85e6 | 3.81e6 |
| Lar (Leukocyte-antigen-related-like) | 1 | 3.49e6 | 3.95e6 | 3.97e6 |
| Lar (Leukocyte-antigen-related-like) | 2 | 3.54e6 | 3.93e6 | 4.12e6 |
| mst (misato) | 1 | 3.54e6 | 4.10e6 | 3.95e6 |
| CG1486 | 1 | 3.67e6 | 4.14e6 | 4.23e6 |
| CG34433 | 1 | 3.58e6 | 3.98e6 | 4.14e6 |
| CG8929 | 1 | 3.59e6 | 4.06e6 | 4.09e6 |
| CG8929 | 2 | 3.45e6 | 3.94e6 | 3.94e6 |
| CG4009 | 1 | 3.71e6 | 4.22e6 | 4.21e6 |
| CR40450 + CG32767 | 1 | 3.42e6 | 3.62e6 | 3.98e6 |
| CG30288 | 1 | 3.81e6 | 4.24e6 | 4.25e6 |
| kuz (kuzbanian) | 1 | 3.77e6 | 4.39e6 | 4.02e6 |
| Hibch (3-hydroxyisobutyryl-CoA hydrolase) | 1 | 3.35e6 | 3.76e6 | 3.79e6 |
| mRpL41 (mitochondrial ribosomal protein L41) | 1 | 3.49e6 | 4.01e6 | 3.95e6 |
| CG14160 | 1 | 3.47e6 | 3.95e6 | 3.91e6 |
| zld (zelda) | 1 | 3.52e6 | 3.90e6 | 4.09e6 |
| zld (zelda) | 2 | 3.33e6 | 3.74e6 | 3.92e6 |
| zld (zelda) | 3 | 3.62e6 | 4.03e6 | 4.18e6 |
| Tsp29Fb (Tetraspanin 29Fb) | 1 | 3.52e6 | 3.98e6 | 4.02e6 |
| Ciao1 | 1 | 3.30e6 | 3.74e6 | 3.74e6 |
| CG15172 | 1 | 3.56e6 | 4.05e6 | 4.04e6 |
| Ugt36D1 (UDP-glycosyltransferase family 36 member D1) | 1 | 3.53e6 | 4.12e6 | 3.90e6 |
